Results from PMC9992712.
No constants are given. Whether binding was seen depends on the method and setting. Some entries that bind do so weakly or less than the wild type.

Protein sequences, listed by entry. Tags and fused reporters are not part of them. Lines headed by an entry give the natural chain unless they say otherwise; changes in a name come on top.
UniProt P25705: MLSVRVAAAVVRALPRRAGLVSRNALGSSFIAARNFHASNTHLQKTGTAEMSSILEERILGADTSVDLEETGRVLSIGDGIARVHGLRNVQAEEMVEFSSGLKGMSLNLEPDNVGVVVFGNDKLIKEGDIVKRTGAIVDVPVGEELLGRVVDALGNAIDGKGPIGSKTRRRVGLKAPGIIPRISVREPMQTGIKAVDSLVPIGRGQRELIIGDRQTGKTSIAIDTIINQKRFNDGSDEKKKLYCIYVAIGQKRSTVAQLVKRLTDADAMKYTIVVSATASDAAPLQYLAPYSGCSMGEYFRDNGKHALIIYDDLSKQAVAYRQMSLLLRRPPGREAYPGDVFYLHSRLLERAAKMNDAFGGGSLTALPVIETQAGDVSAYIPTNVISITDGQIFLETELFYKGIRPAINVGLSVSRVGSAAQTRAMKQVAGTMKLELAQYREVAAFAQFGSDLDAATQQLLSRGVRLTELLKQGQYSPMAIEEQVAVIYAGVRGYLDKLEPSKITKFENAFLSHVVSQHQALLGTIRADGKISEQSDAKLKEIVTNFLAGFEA
UniProt O75964: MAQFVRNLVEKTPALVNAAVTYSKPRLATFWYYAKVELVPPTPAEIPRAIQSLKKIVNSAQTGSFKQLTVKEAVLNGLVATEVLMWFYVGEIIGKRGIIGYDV

Target: human ATP synthase dimer (human (endogenous in HEK293T)) (UniProt P25705)
Assay: native gel or EMSA; 2D BN-PAGE/SDS-PAGE with mass spectrometry: HEK293T mitochondria (400 µg protein) extracted with 2% digitonin, dimers and monomers separated on 3-12% gradient gel, SDS-PAGE in the second dimension, 5-20 kDa bands analysed by mass spectrometry

binding: binds
Substance: human ATP synthase subunit g (from UniProt O75964 1-103)
